Assay results reported in paper PMC7819943, “Rice protein-binding microarrays: a tool to detect cis-acting elements near promoter regions in rice”.
The other results are listed elsewhere or left out.

Chains of the proteins cited; added tags and fusions are not shown.
UniProt Q0JBA9, entry or part of it: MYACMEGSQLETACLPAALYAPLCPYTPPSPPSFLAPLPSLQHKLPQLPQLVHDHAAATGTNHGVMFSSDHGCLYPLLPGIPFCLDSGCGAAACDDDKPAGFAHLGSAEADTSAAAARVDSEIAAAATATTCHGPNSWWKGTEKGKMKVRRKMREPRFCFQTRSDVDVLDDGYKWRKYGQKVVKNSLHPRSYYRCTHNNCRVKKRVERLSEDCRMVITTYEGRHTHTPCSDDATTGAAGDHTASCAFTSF

These sequences were tested against OsWRKY34 (Oryza sativa, UniProt Q0JBA9 1-250) (assay: protein-binding microarray (RPBM); PBS, 2% BSA, 51.3 ng/ul salmon testes DNA, 50 uM zinc acetate, 200 nM TF, 25 C, 1 h; high values mean tight binding). Conditions: protein: recombinant; tags: N-terminal polyhistidine and DsRed monomer fusion (pET32a); label: CyDye5-dUTP incorporated in the synthesized complementary strand; 3' TTTTT single-stranded linker to array surface; dsDNA, one strand shown.
Summary of the method: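 The binding signal is fluorescence intensity per array feature (arbitrary units). Readings came from an Axon 4000B scanner after a washed, 2% BSA-blocked, double-stranded custom Agilent array had been incubated for 1 h at 25 °C with 200 nM protein and 50 µM zinc acetate. The protein was a Ni–NTA-purified transcription factor fused N-terminally to polyhistidine and DsRed, expressed in E. coli BL21-CodonPlus.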

Sequence | binding signal
GCGTTTGCCAGCCGGCCGCCTGCCATTGTGCCTTTCTGCGCGGAGTCACCTAGTGCAG | 9920 fluorescence intensity (a.u.)
GGGGTGTAGGAGGGTTATGGAGGAGGCCTGAACTGAATTTCGGAGTCACCTAGTGCAG | 8780 fluorescence intensity (a.u.)
ACCACTCACCCTTCTCAATATATACTCTAGCTCCGCCCTGCGGAGTCACCTAGTGCAG | 8140 fluorescence intensity (a.u.)
GAGGTGGGTGGTCCGAAGTCCGAAACCCTATCATGCATGCCGGAGTCACCTAGTGCAG | 8210 fluorescence intensity (a.u.)
TGGTGCCATGTCCGTGCATTCACAGCAGTGTTTGTTATTCCGGAGTCACCTAGTGCAG | 8440 fluorescence intensity (a.u.)
GAATTTCATTGTGCCGCATTCTTATGGAGCTTTACGTTGTCGGAGTCACCTAGTGCAG | 8100 fluorescence intensity (a.u.)
CTTTTCGATTGAATGACTAGGTGTTTTGTGTTAATCTTGTCGGAGTCACCTAGTGCAG | 9610 fluorescence intensity (a.u.)
TCAATAACCTTAACTGCCAACATTTTATCTTTACTTTTTTCGGAGTCACCTAGTGCAG | 8160 fluorescence intensity (a.u.)
TTCTGCGATCCGCCTGTTTAGGTCCTCGCTGTCCACCAAACGGAGTCACCTAGTGCAG | 9620 fluorescence intensity (a.u.)
AACACTAGTCCAAGTTTTTTCGGTATAACTACATCCTCCACGGAGTCACCTAGTGCAG | 8080 fluorescence intensity (a.u.)
TCCTCTGTTTACTTATATATAATAGACCTGCTTTTGTAGCCGGAGTCACCTAGTGCAG | 8900 fluorescence intensity (a.u.)
AACCTGTACTCTTCTTGCTCGCGTTCGCGTATATATCCCTCGGAGTCACCTAGTGCAG | 15200 fluorescence intensity (a.u.)
GCAGTTTATTTTGGTCAGATTGTTGTTGTGTGCTATTTTACGGAGTCACCTAGTGCAG | 14800 fluorescence intensity (a.u.)
AATACACGATTTTAAGGGTTTTCTGGGGCTAATCTTTTTTCGGAGTCACCTAGTGCAG | 11400 fluorescence intensity (a.u.)
CCTCCTCGCCGTGCTCCTCACACCGCACCACACCACGTCTCGGAGTCACCTAGTGCAG | 11600 fluorescence intensity (a.u.)
ATAATTAGTCGTGTGCATCACCGTCATCTGGTATCTCTTGCGGAGTCACCTAGTGCAG | 9560 fluorescence intensity (a.u.)
TACCGCTCCCATCCCACGGCTACCATCCATCACCATGATCCGGAGTCACCTAGTGCAG | 8080 fluorescence intensity (a.u.)
TCTCGATCGCATCCAGCCTCATCAACTCCACTTCTCACACCGGAGTCACCTAGTGCAG | 11300 fluorescence intensity (a.u.)
AACTTCGACACAATCTTTAAGATACTACTTTGACCAACAACGGAGTCACCTAGTGCAG | 8220 fluorescence intensity (a.u.)
TCAATCCCCGCCATTAATACCTTTGACTTTTTTTTAAAAACGGAGTCACCTAGTGCAG | 9530 fluorescence intensity (a.u.)
ACTCCTTATCCCATACACACACAATCTCCCTATCATATGCCGGAGTCACCTAGTGCAG | 8630 fluorescence intensity (a.u.)
CGCTCCTCGCCGCCTTGAACCTCACAGCGAAACCTGATCACGGAGTCACCTAGTGCAG | 8600 fluorescence intensity (a.u.)
CTCTTTCTCTCTCTTCTTCTTCTCTCAAAGGTTGAGGAGACGGAGTCACCTAGTGCAG | 8150 fluorescence intensity (a.u.)
CCACACCACAGTCGCCTCTCTCCTCTTTCACCGAGAAGCGCGGAGTCACCTAGTGCAG | 8150 fluorescence intensity (a.u.)
CTACTTTACCAGCTCATCTATCACATCTTAACTGTATTTTCGGAGTCACCTAGTGCAG | 10300 fluorescence intensity (a.u.)
ATCCATGGGCCTCGTTGGTTATAGCCTGTGTGCATCAACACGGAGTCACCTAGTGCAG | 8230 fluorescence intensity (a.u.)
GCTGTTTCCTGGAGGTTCCATCCATGCTATCCTGTGCTCGCGGAGTCACCTAGTGCAG | 8470 fluorescence intensity (a.u.)

Part of the list above, in markdown.

| Sequence | binding signal |
| --- | --- |
| ACCACTCACCCTTCTCAATATATACTCTAGCTCCGCCCTGCGGAGTCACCTAGTGCAG | 8140 fluorescence intensity (a.u.) |
| CTTTTCGATTGAATGACTAGGTGTTTTGTGTTAATCTTGTCGGAGTCACCTAGTGCAG | 9610 fluorescence intensity (a.u.) |
| TCAATAACCTTAACTGCCAACATTTTATCTTTACTTTTTTCGGAGTCACCTAGTGCAG | 8160 fluorescence intensity (a.u.) |
| AACACTAGTCCAAGTTTTTTCGGTATAACTACATCCTCCACGGAGTCACCTAGTGCAG | 8080 fluorescence intensity (a.u.) |
| AACCTGTACTCTTCTTGCTCGCGTTCGCGTATATATCCCTCGGAGTCACCTAGTGCAG | 15200 fluorescence intensity (a.u.) |
| AATACACGATTTTAAGGGTTTTCTGGGGCTAATCTTTTTTCGGAGTCACCTAGTGCAG | 11400 fluorescence intensity (a.u.) |
| ATAATTAGTCGTGTGCATCACCGTCATCTGGTATCTCTTGCGGAGTCACCTAGTGCAG | 9560 fluorescence intensity (a.u.) |
| TACCGCTCCCATCCCACGGCTACCATCCATCACCATGATCCGGAGTCACCTAGTGCAG | 8080 fluorescence intensity (a.u.) |
| TCTCGATCGCATCCAGCCTCATCAACTCCACTTCTCACACCGGAGTCACCTAGTGCAG | 11300 fluorescence intensity (a.u.) |
| AACTTCGACACAATCTTTAAGATACTACTTTGACCAACAACGGAGTCACCTAGTGCAG | 8220 fluorescence intensity (a.u.) |
| ACTCCTTATCCCATACACACACAATCTCCCTATCATATGCCGGAGTCACCTAGTGCAG | 8630 fluorescence intensity (a.u.) |
| CTACTTTACCAGCTCATCTATCACATCTTAACTGTATTTTCGGAGTCACCTAGTGCAG | 10300 fluorescence intensity (a.u.) |
| ATCCATGGGCCTCGTTGGTTATAGCCTGTGTGCATCAACACGGAGTCACCTAGTGCAG | 8230 fluorescence intensity (a.u.) |
| GCTGTTTCCTGGAGGTTCCATCCATGCTATCCTGTGCTCGCGGAGTCACCTAGTGCAG | 8470 fluorescence intensity (a.u.) |

Continued:

Sequence | binding signal
CTTTTGATTGTTCGTTTTGCTATGATTTTGTTCAAGTTAACGGAGTCACCTAGTGCAG | 9180 fluorescence intensity (a.u.)
GTGTTTTTTCTATTCCTCTGTTTTTTCTACCCTGCGATTTCGGAGTCACCTAGTGCAG | 10700 fluorescence intensity (a.u.)
GCAGCAGCACTCGCCACTGTTCTTTCTTTCTCTCTTTCTCCGGAGTCACCTAGTGCAG | 9580 fluorescence intensity (a.u.)
CCTAAGACATCCATCATATGATGATCATGGCATCCCGCATCGGAGTCACCTAGTGCAG | 9170 fluorescence intensity (a.u.)
AGTACATAATTTATTTTCATTTTACATCATATACTATGTACGGAGTCACCTAGTGCAG | 8130 fluorescence intensity (a.u.)
AAATACTACCTCTGTTATATAATAGATGACGCTGTTGACTCGGAGTCACCTAGTGCAG | 8900 fluorescence intensity (a.u.)
GATTTTTTTTCTTATTTTGACCATACTGTCATGCACAACTCGGAGTCACCTAGTGCAG | 10400 fluorescence intensity (a.u.)
ACCCTTCTTCTTCTTCTTCTTCTTCTTCTTCTTCCTCTGACGGAGTCACCTAGTGCAG | 8690 fluorescence intensity (a.u.)
CATAAGATTTGTTCTATGGATTGTTAGGCTGTGTTCCTCTCGGAGTCACCTAGTGCAG | 9140 fluorescence intensity (a.u.)
TTGCAGGAAAATAGTACTACCTTCGTTTTTTTAATATGCACGGAGTCACCTAGTGCAG | 8440 fluorescence intensity (a.u.)
AACTTTACACCGAATCCGATTCGTCCTTATACCTCAAAGCCGGAGTCACCTAGTGCAG | 8110 fluorescence intensity (a.u.)
AAAAAAATCCATCCGTTGCGTCTTCAAATTCCATCCACGTCGGAGTCACCTAGTGCAG | 8680 fluorescence intensity (a.u.)
TGGAATACATACTTTCGGTGCAGATCCGACTTCTGCCTCACGGAGTCACCTAGTGCAG | 8960 fluorescence intensity (a.u.)
ATTTGATCTTTGGCAGTAAGTAATTCGGGGTTTGAAATTTCGGAGTCACCTAGTGCAG | 9170 fluorescence intensity (a.u.)
ATCCTTTGTTGCGTCGCGTCTCTCCACGGCCCCGAATCGCCGGAGTCACCTAGTGCAG | 8330 fluorescence intensity (a.u.)
TACCGTCTAGCTTTTCTTTCTGAGTTTTCCGTTTTTCTAGCGGAGTCACCTAGTGCAG | 11600 fluorescence intensity (a.u.)
TTCACGTTCAATGTTTGACCGTTCGTCTTATTTGAAAATTCGGAGTCACCTAGTGCAG | 8550 fluorescence intensity (a.u.)
TGATGGGGATATTTTGATGATTTAATCTTCTTTGATTCAACGGAGTCACCTAGTGCAG | 9450 fluorescence intensity (a.u.)
CCGTCGGCCCGCAGTCCATATGGCCTCTTCATCGGTCTCACGGAGTCACCTAGTGCAG | 9140 fluorescence intensity (a.u.)
TACTTATATTTACTTGCAGATCAGTTGCCTGCCAATACCGCGGAGTCACCTAGTGCAG | 8390 fluorescence intensity (a.u.)
CACATCTCGGTCCACTGAAGACCGCGTCCATCCGCGAATCCGGAGTCACCTAGTGCAG | 11800 fluorescence intensity (a.u.)
CTGTGGTTGGTTCTTGGGATCAGGTTCTCTGATTCTTGCTCGGAGTCACCTAGTGCAG | 10300 fluorescence intensity (a.u.)
TTCACTCTAGTCTCGGCTAAAAAAACGTTTGACCGGGTCACGGAGTCACCTAGTGCAG | 8520 fluorescence intensity (a.u.)
ACCAACCATTTAAACAGCTGACATGTTAACATATGATAAACGGAGTCACCTAGTGCAG | 8130 fluorescence intensity (a.u.)
TCCAAGATCCGATTCCCCAACCACTGCTCAGTCGCCTAAACGGAGTCACCTAGTGCAG | 8210 fluorescence intensity (a.u.)
ACCAAATCTTTCGTCTGCGCATGAACTTCTTCTGAAATTTCGGAGTCACCTAGTGCAG | 11000 fluorescence intensity (a.u.)
GTTCAATTAATTCCCACCGTTGGTGATCCATGTTTTATATCGGAGTCACCTAGTGCAG | 8940 fluorescence intensity (a.u.)
